Measured values as given in the supplement of paper PMC10849652.
Some of the results follow.

By UniProt entry, the sequences of proteins in these tests, tags left out. Where a name states a change or a piece, a line headed by the entry shows the natural chain unless it says otherwise.
UniProt Q9BU76: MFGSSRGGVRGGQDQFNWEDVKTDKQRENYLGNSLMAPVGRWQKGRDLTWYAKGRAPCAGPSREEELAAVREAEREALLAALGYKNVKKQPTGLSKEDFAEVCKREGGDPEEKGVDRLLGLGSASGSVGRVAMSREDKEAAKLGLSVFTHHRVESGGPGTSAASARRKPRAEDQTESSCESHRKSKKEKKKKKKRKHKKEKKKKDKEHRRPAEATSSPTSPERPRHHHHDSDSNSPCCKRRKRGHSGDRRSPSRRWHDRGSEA
UniProt O00566: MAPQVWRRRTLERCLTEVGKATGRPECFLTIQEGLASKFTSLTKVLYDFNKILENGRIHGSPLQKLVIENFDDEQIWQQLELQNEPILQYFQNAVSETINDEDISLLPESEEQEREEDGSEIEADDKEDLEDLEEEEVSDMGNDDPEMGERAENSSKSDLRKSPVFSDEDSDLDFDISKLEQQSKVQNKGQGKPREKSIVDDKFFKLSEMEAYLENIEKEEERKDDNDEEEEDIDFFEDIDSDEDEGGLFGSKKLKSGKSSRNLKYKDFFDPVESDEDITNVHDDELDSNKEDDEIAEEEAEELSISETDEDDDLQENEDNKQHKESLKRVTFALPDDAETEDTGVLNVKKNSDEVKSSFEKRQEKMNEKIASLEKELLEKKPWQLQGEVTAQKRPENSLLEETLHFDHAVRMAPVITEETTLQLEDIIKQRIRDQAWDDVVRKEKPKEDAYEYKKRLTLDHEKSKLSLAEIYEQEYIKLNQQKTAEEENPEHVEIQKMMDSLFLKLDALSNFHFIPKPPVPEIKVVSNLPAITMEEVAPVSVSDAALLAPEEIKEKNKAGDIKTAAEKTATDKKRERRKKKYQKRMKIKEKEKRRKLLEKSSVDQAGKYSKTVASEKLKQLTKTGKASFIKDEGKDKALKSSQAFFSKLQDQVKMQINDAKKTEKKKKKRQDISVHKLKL
UniProt P25325: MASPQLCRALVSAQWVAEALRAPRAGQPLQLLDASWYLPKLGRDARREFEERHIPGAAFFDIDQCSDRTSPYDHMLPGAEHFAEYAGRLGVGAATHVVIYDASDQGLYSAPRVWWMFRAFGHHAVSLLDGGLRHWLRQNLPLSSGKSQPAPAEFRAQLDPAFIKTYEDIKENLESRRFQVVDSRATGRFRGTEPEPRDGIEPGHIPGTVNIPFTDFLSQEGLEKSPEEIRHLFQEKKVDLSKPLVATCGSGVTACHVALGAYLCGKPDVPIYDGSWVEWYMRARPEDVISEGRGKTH
UniProt Q9UL63, whole entry, looked up: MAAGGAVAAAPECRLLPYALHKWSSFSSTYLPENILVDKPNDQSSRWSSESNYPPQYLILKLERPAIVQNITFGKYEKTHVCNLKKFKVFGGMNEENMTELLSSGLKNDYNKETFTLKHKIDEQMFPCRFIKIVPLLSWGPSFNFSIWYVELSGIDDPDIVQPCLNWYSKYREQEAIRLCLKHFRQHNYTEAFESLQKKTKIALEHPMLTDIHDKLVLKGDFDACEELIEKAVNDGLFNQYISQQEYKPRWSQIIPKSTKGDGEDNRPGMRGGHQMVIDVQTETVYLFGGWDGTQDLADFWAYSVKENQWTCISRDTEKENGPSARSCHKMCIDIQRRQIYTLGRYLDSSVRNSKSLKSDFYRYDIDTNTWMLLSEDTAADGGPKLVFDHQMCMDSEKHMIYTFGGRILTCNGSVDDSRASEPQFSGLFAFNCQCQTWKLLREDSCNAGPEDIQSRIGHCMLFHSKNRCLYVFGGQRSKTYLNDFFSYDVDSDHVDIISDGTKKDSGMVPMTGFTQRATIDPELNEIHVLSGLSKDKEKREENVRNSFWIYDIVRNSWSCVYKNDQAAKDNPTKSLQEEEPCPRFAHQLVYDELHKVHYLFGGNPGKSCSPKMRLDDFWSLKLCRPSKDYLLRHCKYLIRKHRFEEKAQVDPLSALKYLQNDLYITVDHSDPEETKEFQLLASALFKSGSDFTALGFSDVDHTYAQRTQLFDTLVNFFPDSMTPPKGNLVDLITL
UniProt Q13015: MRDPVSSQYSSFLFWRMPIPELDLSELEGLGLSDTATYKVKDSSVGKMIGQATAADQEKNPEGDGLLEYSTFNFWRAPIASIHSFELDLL
UniProt O95563: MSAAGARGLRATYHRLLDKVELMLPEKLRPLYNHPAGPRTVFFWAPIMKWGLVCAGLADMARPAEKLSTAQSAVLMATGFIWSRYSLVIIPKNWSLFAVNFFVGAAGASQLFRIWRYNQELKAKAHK
UniProt Q9NYP9: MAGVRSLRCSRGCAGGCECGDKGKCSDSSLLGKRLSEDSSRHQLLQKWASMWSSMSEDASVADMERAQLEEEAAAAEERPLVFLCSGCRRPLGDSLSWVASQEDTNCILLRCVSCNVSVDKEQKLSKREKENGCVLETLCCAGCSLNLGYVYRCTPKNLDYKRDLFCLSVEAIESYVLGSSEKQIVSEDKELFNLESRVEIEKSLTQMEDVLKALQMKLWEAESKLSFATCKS
UniProt P49959: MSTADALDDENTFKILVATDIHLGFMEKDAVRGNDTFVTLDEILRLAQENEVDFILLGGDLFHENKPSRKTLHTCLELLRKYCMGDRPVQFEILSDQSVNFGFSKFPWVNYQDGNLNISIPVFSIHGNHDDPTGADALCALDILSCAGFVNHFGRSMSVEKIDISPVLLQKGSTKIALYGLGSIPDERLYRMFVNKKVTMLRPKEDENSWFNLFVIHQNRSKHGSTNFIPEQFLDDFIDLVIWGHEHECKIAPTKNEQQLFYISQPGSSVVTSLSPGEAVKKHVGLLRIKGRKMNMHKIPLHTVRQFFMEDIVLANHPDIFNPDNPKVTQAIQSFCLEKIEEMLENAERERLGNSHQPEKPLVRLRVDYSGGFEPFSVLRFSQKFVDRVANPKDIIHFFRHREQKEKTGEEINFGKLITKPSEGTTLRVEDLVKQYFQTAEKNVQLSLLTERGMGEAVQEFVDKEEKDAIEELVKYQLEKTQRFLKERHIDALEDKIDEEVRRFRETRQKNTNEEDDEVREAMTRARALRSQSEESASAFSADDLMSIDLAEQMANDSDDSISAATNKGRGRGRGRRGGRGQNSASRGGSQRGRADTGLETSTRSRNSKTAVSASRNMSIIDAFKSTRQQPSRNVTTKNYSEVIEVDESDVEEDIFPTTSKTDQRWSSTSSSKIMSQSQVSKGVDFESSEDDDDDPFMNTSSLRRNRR
UniProt Q8N4V1: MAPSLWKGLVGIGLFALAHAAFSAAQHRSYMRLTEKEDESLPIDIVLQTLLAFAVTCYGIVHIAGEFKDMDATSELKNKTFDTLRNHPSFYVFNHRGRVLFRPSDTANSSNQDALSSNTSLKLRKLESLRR
UniProt Q7L9L4: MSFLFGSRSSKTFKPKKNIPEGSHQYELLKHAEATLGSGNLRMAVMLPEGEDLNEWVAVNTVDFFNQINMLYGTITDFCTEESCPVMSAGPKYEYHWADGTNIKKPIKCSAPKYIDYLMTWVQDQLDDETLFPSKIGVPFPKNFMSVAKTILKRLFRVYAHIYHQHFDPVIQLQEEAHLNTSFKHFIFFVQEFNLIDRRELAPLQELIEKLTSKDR
UniProt Q96EY8: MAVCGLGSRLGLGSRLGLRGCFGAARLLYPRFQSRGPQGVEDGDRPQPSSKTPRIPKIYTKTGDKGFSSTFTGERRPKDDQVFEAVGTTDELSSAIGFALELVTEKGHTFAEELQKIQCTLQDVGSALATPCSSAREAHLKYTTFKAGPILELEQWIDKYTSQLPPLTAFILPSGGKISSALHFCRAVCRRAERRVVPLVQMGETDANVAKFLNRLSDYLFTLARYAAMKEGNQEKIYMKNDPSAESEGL
UniProt P14174: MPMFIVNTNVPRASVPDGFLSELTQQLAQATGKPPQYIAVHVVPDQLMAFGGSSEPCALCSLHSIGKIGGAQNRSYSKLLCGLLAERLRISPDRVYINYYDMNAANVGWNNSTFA
UniProt Q9BRT3: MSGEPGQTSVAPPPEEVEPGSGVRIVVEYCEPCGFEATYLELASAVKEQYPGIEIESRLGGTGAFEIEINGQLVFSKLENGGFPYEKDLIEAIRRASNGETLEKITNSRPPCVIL
UniProt Q9Y6X9: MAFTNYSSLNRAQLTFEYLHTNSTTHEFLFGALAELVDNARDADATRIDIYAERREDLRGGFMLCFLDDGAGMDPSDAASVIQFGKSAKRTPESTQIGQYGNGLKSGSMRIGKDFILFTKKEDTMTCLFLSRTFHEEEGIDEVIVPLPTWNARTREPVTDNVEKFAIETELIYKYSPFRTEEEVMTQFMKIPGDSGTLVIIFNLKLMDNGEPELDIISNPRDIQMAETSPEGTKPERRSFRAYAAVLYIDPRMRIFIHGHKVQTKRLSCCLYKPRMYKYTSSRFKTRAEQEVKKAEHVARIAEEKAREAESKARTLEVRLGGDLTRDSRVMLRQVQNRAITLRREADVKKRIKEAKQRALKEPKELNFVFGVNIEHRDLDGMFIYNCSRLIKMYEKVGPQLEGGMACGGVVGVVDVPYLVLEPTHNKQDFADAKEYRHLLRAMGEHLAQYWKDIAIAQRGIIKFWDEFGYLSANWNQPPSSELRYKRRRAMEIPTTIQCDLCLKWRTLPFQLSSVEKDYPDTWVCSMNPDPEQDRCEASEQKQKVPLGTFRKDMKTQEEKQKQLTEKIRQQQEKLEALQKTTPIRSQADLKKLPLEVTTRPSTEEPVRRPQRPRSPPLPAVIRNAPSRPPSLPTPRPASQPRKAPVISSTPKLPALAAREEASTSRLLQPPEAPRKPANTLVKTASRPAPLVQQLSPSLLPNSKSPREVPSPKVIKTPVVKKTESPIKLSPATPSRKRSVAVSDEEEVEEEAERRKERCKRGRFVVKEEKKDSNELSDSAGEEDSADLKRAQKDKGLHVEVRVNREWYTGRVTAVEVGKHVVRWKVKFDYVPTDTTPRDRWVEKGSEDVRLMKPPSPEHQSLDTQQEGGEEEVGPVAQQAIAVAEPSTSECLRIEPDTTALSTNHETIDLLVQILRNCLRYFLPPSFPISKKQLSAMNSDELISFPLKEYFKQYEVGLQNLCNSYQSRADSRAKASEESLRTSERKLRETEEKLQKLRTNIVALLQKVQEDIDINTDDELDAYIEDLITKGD
UniProt Q86TA1: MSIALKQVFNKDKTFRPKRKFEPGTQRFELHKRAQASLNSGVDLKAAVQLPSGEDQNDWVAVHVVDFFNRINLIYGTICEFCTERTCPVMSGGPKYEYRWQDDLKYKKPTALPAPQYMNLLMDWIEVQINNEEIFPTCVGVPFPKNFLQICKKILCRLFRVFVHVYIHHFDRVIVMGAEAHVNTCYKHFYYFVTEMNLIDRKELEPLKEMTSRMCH
UniProt Q14149: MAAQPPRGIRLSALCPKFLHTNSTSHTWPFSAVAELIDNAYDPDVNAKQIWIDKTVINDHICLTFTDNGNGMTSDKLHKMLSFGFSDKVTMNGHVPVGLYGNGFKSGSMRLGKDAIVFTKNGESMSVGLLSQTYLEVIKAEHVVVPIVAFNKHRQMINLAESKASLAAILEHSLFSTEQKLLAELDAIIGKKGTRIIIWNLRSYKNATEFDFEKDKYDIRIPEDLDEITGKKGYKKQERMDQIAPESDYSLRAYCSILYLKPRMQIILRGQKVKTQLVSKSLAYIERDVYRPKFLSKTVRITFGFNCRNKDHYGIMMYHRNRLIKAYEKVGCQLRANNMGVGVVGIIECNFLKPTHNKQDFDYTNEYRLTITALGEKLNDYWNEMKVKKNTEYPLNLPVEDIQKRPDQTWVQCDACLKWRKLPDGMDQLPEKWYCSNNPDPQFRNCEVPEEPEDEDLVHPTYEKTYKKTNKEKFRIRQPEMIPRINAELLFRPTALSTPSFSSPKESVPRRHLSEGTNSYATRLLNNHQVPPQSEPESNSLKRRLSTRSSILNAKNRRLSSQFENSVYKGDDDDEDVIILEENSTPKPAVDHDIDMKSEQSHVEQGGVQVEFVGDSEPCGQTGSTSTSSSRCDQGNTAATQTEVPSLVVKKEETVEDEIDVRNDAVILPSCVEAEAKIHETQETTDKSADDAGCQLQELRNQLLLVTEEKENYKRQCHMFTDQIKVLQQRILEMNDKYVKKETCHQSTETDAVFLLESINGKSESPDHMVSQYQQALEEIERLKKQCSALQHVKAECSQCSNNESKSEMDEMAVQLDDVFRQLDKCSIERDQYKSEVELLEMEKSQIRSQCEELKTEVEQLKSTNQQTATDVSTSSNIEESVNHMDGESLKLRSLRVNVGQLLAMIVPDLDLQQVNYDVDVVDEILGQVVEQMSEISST
UniProt O75352: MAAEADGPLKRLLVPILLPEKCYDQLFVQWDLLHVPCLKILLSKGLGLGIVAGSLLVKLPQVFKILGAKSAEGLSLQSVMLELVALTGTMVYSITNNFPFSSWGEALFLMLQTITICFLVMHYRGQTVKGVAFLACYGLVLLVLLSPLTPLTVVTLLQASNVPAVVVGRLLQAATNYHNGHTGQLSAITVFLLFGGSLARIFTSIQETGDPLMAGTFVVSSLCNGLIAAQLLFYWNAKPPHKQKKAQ
UniProt Q5XKP0: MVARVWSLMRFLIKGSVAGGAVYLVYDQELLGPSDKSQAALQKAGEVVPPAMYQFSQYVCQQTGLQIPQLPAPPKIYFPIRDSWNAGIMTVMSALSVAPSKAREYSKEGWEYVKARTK

Experiments:
Assay in all cases: log2 fold change, soluble protein after heating vs DMSO (PISA); higher = thermal stabilisation; K562 cells, 10 uM, 30 min; active = over 0.2 and 3.5 SD of the protein, either way, in both replicates (recomputed)
[1] = compound: C1=CC=C(C=C1)[C@H](COC2=CC3=C(C=C2)NC(=O)N3)NC(=O)C4=CC=CN(C4=O)CC5=CC(=C(C=C5)F)F
Procedure, shortened: (§1)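 K562 cells (2×10^6 cells/mL) were treated with 10 μM compound for 30 min, and aliquots were heated for 3 min over 48°C-58°C. Pooled aliquots were extracted in PBS with 0.5% NP-40 at 4°C, and the supernatant after 21,000xg for 90 min was measured by TMTpro 16plex LC-MS/MS with channel sums equalised. Reported thermal stability, relative to control samples and from duplicates, is a log2 fold change.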

[2] = compound: CC1=C(SC2=C1C(=N[C@H](C3=NN=C(N32)C)CC(=O)N)C4=CC=C(C=C4)Cl)C
Procedure, shortened: as §1

[3] = compound: CC1=C2C(=CC=C1)N=C(N(C2=O)C3=CC=CC=C3C)CN4C=NC5=C(N=CN=C54)N
Procedure, shortened: as §1

[4] = compound: Cc1sc2c(c1C)C(c1ccc(Cl)cc1)=N[C@@H](CC(=O)OC(C)(C)C)c1nnc(C)n1-2
Procedure, shortened: as §1

[5] = compound: c1ccc([C@@H]2C[C@H]2NC2CCNCC2)cc1
Procedure, shortened: as §1

Measured: log2 fold change

MRPL18 (UniProt Q9H0U6)
inactive: [1] 0.06 | [2] 0.112 | [3] -0.232 | [4] 0.021 | [5] -0.13

MICALL2 (UniProt Q8IY33)
inactive: [1] -0.083 | [2] 0.092 | [3] 0.053 | [4] -0.007 | [5] -0.09

MMTAG2 (UniProt Q9BU76)
inactive: [1] 0.115 | [2] -0.215 | [3] -0.214 | [4] 0.228 | [5] 0.027

MRPL14 (UniProt Q6P1L8)
inactive: [1] -0.02 | [2] 0.015 | [3] -0.059 | [4] 0.033 | [5] -0.094

MRPL33 (UniProt O75394)
inactive: [1] 0.125 | [2] 0.033 | [3] 0.06 | [4] -0.022 | [5] -0.109

MIEF1 (UniProt L0R8F8)
inactive: [1] 0.072 | [2] 0.026 | [3] 0.039 | [4] -0.092 | [5] 0.007

MPHOSPH10 (UniProt O00566)
inactive: [1] 0.023 | [2] -0.279 | [3] -0.206 | [4] 0.094 | [5] -0.024

MRI1 (UniProt Q9BV20)
inactive: [1] -0.017 | [2] 0.048 | [3] 0.119 | [4] -0.011 | [5] -0.006

MPST isoform 2 (UniProt P25325)
inactive: [1] 0.05 | [2] 0.068 | [3] 0.071 | [4] 0.002 | [5] 0

MKLN1 (UniProt Q9UL63)
inactive: [1] 0 | [2] 0.004 | [3] 0.038 | [4] -0.007 | [5] 0.01

MOB4 (UniProt Q9Y3A3)
inactive: [1] -0.025 | [2] -0.014 | [3] 0.089 | [4] -0.002 | [5] 0.058

MLLT11 (UniProt Q13015)
inactive: [1] -0.053 | [2] 0.117 | [3] -0.23 | [4] -0.041 | [5] 0.212

MICAL2 (UniProt O94851)
inactive: [1] -0.078 | [2] 0.036 | [3] 0.074 | [4] -0.09 | [5] -0.016

MMUT (UniProt P22033)
inactive: [1] -0.012 | [2] 0.054 | [3] 0.074 | [4] -0.008 | [5] 0

MPC2 (UniProt O95563)
inactive: [1] -0.022 | [2] 0.046 | [3] 0.057 | [4] -0.024 | [5] 0.012

MLLT10 (UniProt P55197)
inactive: [1] 0.058

MIS18A (UniProt Q9NYP9)
inactive: [1] 0.007 | [2] 0 | [3] -0.011 | [4] -0.018 | [5] 0.03

MRE11 isoform 3 (UniProt P49959)
inactive: [1] 0.012 | [2] -0.035 | [3] 0.004 | [4] 0.025 | [5] 0.046

MRAS (UniProt O14807)
inactive: [1] 0.013

MRPL10 isoform 2 (UniProt Q7Z7H8)
inactive: [1] 0.03 | [2] -0.107 | [3] -0.023 | [4] 0.076 | [5] -0.03

MRPL11 (UniProt Q9Y3B7)
inactive: [1] 0.033 | [2] -0.105 | [3] -0.069 | [4] 0.11 | [5] -0.042

MLYCD (UniProt O95822)
inactive: [1] -0.165 | [2] 0.072 | [3] 0.065 | [4] -0.05 | [5] 0.01

MLXIP (UniProt Q9HAP2)
inactive: [1] -0.202 | [2] 0.033 | [3] 0.282 | [4] -0.044 | [5] -0.392

MOCOS (UniProt Q96EN8)
inactive: [1] 0.059 | [2] 0.033 | [3] 0.056 | [4] 0.024 | [5] 0.015

MMGT1 (UniProt Q8N4V1)
inactive: [1] 0.018 | [2] 0.085 | [3] 0.131 | [4] -0.092 | [5] -0.016

MRPL23 (UniProt Q16540)
inactive: [1] 0.076 | [2] -0.068 | [3] 0.001 | [4] 0.11 | [5] -0.031

MNT (UniProt Q99583)
inactive: [1] -0.054 | [2] 0.168 | [3] 0.167 | [4] 0.027 | [5] -0.152

MRPL22 (UniProt Q9NWU5)
inactive: [1] -0.04 | [2] -0.062 | [3] -0.106 | [4] 0.01 | [5] -0.078

Three records picked at random from those above, as already listed:
MNT (UniProt Q99583)
inactive: [1] -0.054 | [2] 0.168 | [3] 0.167 | [4] 0.027 | [5] -0.152

MRPL22 (UniProt Q9NWU5)
inactive: [1] -0.04 | [2] -0.062 | [3] -0.106 | [4] 0.01 | [5] -0.078

MOCOS (UniProt Q96EN8)
inactive: [1] 0.059 | [2] 0.033 | [3] 0.056 | [4] 0.024 | [5] 0.015

Next part:

MOB1B isoform 2 (UniProt Q7L9L4)
inactive: [1] -0.019 | [2] 0.042 | [3] 0.012 | [4] 0.004 | [5] 0.007

MMAB (UniProt Q96EY8)
inactive: [1] 0.037 | [2] -0.009 | [3] 0 | [4] -0.035 | [5] 0.092

MRM3 (UniProt Q9HC36)
inactive: [1] 0.145 | [2] -0.223 | [3] -0.208 | [4] 0.119 | [5] 0

MRPL51 (UniProt Q4U2R6)
inactive: [1] 0.059 | [2] -0.116 | [3] -0.086 | [4] 0.113 | [5] -0.005

MRPL40 (UniProt Q9NQ50)
inactive: [1] 0.064 | [2] -0.259 | [3] -0.091 | [4] 0.043 | [5] -0.054

MRPL39 (UniProt Q9NYK5)
inactive: [1] 0.045 | [2] -0.043 | [3] -0.117 | [4] 0.03 | [5] -0.053

MIF (UniProt P14174)
inactive: [1] -0.101 | [2] 0.016 | [3] 0.015 | [4] -0.083 | [5] 0.004

MIEN1 (UniProt Q9BRT3)
inactive: [1] 0.035 | [2] 0.101 | [3] 0.014 | [4] -0.097 | [5] 0.019

MORC2 (UniProt Q9Y6X9)
inactive: [1] -0.293

MMGT1 isoform 2 (UniProt Q8N4V1)
inactive: [1] 0 | [2] 0.104 | [3] 0.033 | [4] -0.067 | [5] -0.038

MOB3B (UniProt Q86TA1)
inactive: [1] 0 | [2] 0.029 | [3] 0.178 | [4] 0.041 | [5] -0.088

MRPL53 (UniProt Q96EL3)
inactive: [1] 0.011 | [2] -0.045 | [3] 0.034 | [4] 0.001 | [5] -0.061

MRPL38 (UniProt Q96DV4)
inactive: [1] 0.075 | [2] -0.181 | [3] -0.138 | [4] 0.17 | [5] -0.056

MRPL54 (UniProt Q6P161)
inactive: [1] 0.091 | [2] -0.077 | [3] -0.139 | [4] 0.015 | [5] 0.101

MMS19 isoform 8 (UniProt Q96T76)
inactive: [1] -0.034 | [2] -0.001 | [3] 0.133 | [4] 0.002 | [5] -0.003

MRPL46 (UniProt Q9H2W6)
inactive: [1] 0 | [2] -0.1 | [3] -0.037 | [4] 0.009 | [5] 0.026

MKI67 (UniProt P46013)
inactive: [1] 0.03 | [2] -0.082 | [3] -0.041 | [4] 0.036 | [5] 0.036

MICU1 isoform 3 (UniProt Q9BPX6)
inactive: [1] 0.005 | [2] -0.033 | [3] -0.06 | [4] 0.02 | [5] -0.036

MICAL3 (UniProt Q7RTP6)
inactive: [1] -0.007 | [2] 0.054 | [3] 0.101 | [4] 0.032 | [5] 0.037

MRPL35 (UniProt Q9NZE8)
inactive: [1] 0.061 | [2] -0.163 | [3] -0.163 | [4] 0.15 | [5] 0

MORC3 (UniProt Q14149)
inactive: [1] -0.043 | [2] 0.014 | [3] 0.132 | [4] 0.017 | [5] 0.062

MRPL32 (UniProt Q9BYC8)
inactive: [1] 0.034 | [2] -0.157 | [3] -0.098 | [4] 0.017 | [5] 0.025

MPDU1 (UniProt O75352)
inactive: [1] -0.041 | [2] 0.019 | [3] -0.045 | [4] -0.1 | [5] 0.147

MICOS13 (UniProt Q5XKP0)
inactive: [1] -0.018 | [2] 0.07 | [3] -0.032 | [4] 0 | [5] 0.003

MIB1 (UniProt Q86YT6)
inactive: [1] -0.029 | [2] -0.001 | [3] 0.096 | [4] 0.16 | [5] 0.087

MON2 isoform 5 (UniProt Q7Z3U7)
inactive: [1] -0.023 | [2] 0.016 | [3] 0.109 | [4] -0.025 | [5] -0.073

MRPL27 (UniProt Q9P0M9)
inactive: [1] 0.06 | [2] -0.264 | [3] -0.064 | [4] 0.115 | [5] 0.021
